In article PMC4141822:
No constants are given. Whether binding was seen depends on the method and setting. Binding calls can cover weak binding; strength is not graded here.

Assays:
[1] = molecular target: Thermoproteus tenax Cas3″ (DNA nuclease) (Thermoproteus tenax); assay: co-refolding reconstitution, soluble fraction by SDS-PAGE; 300 µg of each GdmCl-solubilized Cas5a, Cas3′, Cas3″ and Cas8a2 mixed with purified Cas7 and a Csa5 variant, co-refolded by stepwise dialysis into GdmCl-free buffer; aggregates precipitated (14,000×g, 30 min, 4°C), soluble proteins concentrated and analysed by SDS-PAGE; both purified
[2] = molecular target: Thermoproteus tenax Cas3′ (helicase) (Thermoproteus tenax); assay: as above

Row | Binder | binding [1] | binding [2]
1 | Thermoproteus tenax Csa5 wild type (TTX_1250) (natural protein, Thermoproteus tenax Kra1, UniProt G4RJZ0 1-130, looked up, Csa5 (Csa5b), small subunit of the type I-A Cascade, Thermoproteus tenax Kra1, locus TTX_1250; theoretical mass of the monomer 15.04 kDa; no tag is named and the purification uses none; also called Csa5 WT; Csa5b; source: E. coli Rosetta(DE3)pLysS, purified (heat precipitation 90°C, Blue-Sepharose, MonoQ)) MESVQLKKEELVERAARSVRPAVHLEMAYDVLDELSRSPEKYPEQLAKLSRIVVKVLNDVEDELEHNPQNEELQKARNRLAAWGGYVAELAKRLEEADDRERIRMVRLFCAMALAPDKLTVELKKLLKGR | binds | binds
2 | Thermoproteus tenax Csa5 D30A/D33A (natural protein, Thermoproteus tenax Kra1, UniProt G4RJZ0 1-130, looked up, Made by site-directed mutagenesis of the pET24a csa5 construct; source: E. coli Rosetta(DE3)pLysS, purified (heat precipitation 90°C, Blue-Sepharose, MonoQ)) MESVQLKKEELVERAARSVRPAVHLEMAYAVLAELSRSPEKYPEQLAKLSRIVVKVLNDVEDELEHNPQNEELQKARNRLAAWGGYVAELAKRLEEADDRERIRMVRLFCAMALAPDKLTVELKKLLKGR | binds | binds
3 | Thermoproteus tenax Csa5 D33A (natural protein, Thermoproteus tenax Kra1, UniProt G4RJZ0 1-130, looked up, Made by site-directed mutagenesis of the pET24a csa5 construct; source: E. coli Rosetta(DE3)pLysS, purified (heat precipitation 90°C, Blue-Sepharose, MonoQ)) MESVQLKKEELVERAARSVRPAVHLEMAYDVLAELSRSPEKYPEQLAKLSRIVVKVLNDVEDELEHNPQNEELQKARNRLAAWGGYVAELAKRLEEADDRERIRMVRLFCAMALAPDKLTVELKKLLKGR | binds | binds
4 | Thermoproteus tenax Csa5 Y29A (natural protein, Thermoproteus tenax Kra1, UniProt G4RJZ0 1-130, looked up, Made by site-directed mutagenesis of the pET24a csa5 construct; source: E. coli Rosetta(DE3)pLysS, purified (heat precipitation 90°C, Blue-Sepharose, MonoQ)) MESVQLKKEELVERAARSVRPAVHLEMAADVLDELSRSPEKYPEQLAKLSRIVVKVLNDVEDELEHNPQNEELQKARNRLAAWGGYVAELAKRLEEADDRERIRMVRLFCAMALAPDKLTVELKKLLKGR | binds | binds
